Results published in patent US11919899B2, “Substituted 1-(3,3-difluoropiperidin-4-yl)-imidazo[4,5-c] quinolin-2-one compounds with blood-brain barrier penetrable capability” (priority 2020, dated 2024).
Some entries share one result that the patent states for a list of compounds.

Amino acid sequences for entries named in this document (tags omitted). A change or cut given only in a name is not applied to a line headed by its entry.
UniProt Q13315: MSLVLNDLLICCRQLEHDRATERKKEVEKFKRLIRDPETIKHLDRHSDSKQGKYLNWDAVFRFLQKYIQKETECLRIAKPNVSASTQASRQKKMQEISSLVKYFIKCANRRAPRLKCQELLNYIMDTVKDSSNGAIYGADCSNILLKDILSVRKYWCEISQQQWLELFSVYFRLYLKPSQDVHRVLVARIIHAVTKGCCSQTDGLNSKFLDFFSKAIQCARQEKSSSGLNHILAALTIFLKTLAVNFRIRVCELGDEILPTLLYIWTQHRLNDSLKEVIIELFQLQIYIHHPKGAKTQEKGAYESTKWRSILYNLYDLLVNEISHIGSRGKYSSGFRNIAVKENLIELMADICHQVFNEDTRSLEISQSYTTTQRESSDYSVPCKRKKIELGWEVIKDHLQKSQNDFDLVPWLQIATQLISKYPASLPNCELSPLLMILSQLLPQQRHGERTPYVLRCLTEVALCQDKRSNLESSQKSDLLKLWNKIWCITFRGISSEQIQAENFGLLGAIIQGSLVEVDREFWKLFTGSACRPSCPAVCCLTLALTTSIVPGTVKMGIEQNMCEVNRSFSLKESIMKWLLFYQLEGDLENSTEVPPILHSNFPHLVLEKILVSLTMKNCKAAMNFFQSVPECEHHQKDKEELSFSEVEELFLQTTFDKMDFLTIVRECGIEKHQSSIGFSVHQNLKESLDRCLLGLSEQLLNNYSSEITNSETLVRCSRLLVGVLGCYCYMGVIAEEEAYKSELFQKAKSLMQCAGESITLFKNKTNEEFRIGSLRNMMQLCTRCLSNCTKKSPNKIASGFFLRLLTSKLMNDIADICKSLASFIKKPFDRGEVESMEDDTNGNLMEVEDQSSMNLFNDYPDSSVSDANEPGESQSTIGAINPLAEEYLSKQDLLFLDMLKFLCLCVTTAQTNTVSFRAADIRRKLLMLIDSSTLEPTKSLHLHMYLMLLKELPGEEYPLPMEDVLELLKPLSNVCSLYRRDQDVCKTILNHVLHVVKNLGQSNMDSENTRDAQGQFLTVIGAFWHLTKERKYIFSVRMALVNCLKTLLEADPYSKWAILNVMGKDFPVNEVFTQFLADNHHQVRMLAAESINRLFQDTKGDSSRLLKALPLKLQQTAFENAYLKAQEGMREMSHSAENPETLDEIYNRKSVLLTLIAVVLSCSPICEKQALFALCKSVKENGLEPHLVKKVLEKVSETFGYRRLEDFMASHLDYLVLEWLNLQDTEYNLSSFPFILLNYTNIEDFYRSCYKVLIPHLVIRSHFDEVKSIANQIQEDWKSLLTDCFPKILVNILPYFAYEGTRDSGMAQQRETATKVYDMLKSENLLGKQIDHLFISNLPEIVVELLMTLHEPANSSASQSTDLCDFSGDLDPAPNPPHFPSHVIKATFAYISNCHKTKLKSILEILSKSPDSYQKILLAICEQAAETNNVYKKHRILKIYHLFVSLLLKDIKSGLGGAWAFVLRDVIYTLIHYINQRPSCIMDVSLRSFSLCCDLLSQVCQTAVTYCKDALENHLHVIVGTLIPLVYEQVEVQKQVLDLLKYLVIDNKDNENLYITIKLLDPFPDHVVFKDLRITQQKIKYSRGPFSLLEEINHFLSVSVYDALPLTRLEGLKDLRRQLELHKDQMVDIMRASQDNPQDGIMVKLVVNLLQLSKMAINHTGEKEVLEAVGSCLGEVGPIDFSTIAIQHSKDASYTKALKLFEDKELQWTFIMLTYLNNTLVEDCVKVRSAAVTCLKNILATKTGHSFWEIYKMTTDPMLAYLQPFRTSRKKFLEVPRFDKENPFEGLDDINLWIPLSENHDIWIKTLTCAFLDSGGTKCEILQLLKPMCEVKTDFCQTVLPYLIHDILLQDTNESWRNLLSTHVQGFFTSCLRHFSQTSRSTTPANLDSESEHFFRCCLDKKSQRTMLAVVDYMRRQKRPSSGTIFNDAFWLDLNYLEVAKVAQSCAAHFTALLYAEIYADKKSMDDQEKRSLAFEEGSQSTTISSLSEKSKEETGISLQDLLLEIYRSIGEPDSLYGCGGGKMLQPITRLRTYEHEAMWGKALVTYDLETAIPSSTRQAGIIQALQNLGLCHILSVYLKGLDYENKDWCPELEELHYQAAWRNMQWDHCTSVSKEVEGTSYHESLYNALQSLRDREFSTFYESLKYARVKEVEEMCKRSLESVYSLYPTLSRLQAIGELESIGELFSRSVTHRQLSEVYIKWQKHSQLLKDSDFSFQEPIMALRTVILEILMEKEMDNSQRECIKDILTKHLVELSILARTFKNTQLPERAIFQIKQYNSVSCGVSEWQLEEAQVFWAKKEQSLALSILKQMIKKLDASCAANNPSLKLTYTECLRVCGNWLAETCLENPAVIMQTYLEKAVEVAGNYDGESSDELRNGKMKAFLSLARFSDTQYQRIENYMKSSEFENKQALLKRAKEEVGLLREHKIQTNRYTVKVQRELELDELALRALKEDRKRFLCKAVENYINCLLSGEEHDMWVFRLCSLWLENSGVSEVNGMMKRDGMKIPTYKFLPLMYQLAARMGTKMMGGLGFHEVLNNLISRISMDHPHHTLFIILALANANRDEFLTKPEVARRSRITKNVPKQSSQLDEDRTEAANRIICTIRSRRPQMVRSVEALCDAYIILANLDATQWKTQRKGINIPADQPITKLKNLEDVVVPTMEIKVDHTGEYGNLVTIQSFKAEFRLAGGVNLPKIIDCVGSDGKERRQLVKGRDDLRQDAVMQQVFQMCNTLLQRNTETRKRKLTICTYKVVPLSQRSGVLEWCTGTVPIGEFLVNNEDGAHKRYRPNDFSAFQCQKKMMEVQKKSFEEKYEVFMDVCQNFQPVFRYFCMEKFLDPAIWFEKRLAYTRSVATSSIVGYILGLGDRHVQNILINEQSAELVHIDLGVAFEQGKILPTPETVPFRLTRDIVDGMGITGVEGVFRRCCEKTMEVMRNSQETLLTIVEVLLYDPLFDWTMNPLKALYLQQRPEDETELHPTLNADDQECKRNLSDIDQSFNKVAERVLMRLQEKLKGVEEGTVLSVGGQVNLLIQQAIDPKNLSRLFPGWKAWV
UniProt P08183, whole entry: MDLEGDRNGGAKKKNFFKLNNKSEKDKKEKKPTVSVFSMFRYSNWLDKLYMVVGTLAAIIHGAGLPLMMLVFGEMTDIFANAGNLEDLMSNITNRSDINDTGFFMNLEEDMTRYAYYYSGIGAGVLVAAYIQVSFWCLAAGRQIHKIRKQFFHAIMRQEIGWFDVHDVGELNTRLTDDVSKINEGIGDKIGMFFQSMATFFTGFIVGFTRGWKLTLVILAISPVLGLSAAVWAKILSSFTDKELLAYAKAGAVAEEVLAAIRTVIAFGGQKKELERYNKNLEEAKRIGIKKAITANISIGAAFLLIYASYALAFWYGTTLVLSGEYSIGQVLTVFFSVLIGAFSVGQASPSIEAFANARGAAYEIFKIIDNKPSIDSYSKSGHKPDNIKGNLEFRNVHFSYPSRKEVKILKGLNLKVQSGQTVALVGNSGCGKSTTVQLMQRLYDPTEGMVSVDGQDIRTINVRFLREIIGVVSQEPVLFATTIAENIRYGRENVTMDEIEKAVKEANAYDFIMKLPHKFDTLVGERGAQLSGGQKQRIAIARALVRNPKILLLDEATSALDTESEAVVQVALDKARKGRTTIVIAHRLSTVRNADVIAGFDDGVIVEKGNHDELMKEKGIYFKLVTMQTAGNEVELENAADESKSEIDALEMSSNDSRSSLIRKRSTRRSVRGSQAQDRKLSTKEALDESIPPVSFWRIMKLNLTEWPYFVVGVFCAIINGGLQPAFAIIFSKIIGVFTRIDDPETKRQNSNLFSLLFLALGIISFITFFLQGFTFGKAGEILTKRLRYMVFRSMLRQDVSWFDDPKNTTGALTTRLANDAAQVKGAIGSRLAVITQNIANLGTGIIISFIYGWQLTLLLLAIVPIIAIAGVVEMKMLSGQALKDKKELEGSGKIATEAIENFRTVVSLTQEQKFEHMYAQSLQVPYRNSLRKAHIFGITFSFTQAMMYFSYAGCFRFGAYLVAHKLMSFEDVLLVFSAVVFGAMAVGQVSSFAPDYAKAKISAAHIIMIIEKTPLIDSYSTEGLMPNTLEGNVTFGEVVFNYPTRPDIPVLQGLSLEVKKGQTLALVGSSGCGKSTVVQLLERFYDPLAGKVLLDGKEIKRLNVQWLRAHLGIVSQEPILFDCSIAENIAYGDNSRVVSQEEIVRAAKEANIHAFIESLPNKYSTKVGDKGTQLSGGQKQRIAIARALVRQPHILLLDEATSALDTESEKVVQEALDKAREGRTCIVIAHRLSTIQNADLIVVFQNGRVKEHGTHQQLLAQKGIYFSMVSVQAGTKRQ

How the values were obtained:
ATM protein = target: T1, ATM protein (Homo sapiens, UniProt Q13315); assay: MCF-7 cell pATM inhibition (phosphorylation of ATM protein, anti-pKAP1 readout, Etoposide); format: cell-based; conditions: MCF-7 cells, compound and Etoposide 1 h
T1 construct: Phosphorylation of ATM protein using MCF-7 cell was detected; endogenous in cells; host or cells: MCF-7

P-glycoprotein = P-glycoprotein (Homo sapiens, UniProt P08183); assay: P-glycoprotein efflux substrate; format: in vitro ADME; conditions: substrate if Efflux ratio>1.5
[1] = target: T2, BCRP (Breast Cancer Resistance Protein) (Homo sapiens, UniProt Q9UNQ0); assay: BCRP efflux substrate; format: in vitro ADME; conditions: substrate if Efflux ratio>1.5
T2 sequence (Q9UNQ0 1-655): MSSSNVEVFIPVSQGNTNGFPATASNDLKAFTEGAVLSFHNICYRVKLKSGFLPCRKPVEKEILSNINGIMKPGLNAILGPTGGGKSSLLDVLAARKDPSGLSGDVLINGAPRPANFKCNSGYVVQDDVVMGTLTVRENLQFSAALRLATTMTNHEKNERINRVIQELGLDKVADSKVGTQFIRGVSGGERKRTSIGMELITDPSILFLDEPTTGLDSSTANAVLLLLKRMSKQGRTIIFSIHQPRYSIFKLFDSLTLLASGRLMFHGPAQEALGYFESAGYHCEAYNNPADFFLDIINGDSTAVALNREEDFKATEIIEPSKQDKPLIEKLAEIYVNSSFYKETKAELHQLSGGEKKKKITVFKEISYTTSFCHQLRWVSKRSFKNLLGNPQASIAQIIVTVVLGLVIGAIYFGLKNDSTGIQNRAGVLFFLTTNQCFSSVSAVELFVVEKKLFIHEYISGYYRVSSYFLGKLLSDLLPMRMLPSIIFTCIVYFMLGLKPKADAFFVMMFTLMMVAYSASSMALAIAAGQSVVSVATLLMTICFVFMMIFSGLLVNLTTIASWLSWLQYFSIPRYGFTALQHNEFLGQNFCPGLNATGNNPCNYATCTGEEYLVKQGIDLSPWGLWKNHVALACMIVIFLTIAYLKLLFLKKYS

[2] = target: T3, Human aldehyde oxidase (hAOX) (Homo sapiens, UniProt Q06278); assay: Aldehyde oxidase susceptibility; format: in vitro ADME
T3 sequence (Q06278 1-1338): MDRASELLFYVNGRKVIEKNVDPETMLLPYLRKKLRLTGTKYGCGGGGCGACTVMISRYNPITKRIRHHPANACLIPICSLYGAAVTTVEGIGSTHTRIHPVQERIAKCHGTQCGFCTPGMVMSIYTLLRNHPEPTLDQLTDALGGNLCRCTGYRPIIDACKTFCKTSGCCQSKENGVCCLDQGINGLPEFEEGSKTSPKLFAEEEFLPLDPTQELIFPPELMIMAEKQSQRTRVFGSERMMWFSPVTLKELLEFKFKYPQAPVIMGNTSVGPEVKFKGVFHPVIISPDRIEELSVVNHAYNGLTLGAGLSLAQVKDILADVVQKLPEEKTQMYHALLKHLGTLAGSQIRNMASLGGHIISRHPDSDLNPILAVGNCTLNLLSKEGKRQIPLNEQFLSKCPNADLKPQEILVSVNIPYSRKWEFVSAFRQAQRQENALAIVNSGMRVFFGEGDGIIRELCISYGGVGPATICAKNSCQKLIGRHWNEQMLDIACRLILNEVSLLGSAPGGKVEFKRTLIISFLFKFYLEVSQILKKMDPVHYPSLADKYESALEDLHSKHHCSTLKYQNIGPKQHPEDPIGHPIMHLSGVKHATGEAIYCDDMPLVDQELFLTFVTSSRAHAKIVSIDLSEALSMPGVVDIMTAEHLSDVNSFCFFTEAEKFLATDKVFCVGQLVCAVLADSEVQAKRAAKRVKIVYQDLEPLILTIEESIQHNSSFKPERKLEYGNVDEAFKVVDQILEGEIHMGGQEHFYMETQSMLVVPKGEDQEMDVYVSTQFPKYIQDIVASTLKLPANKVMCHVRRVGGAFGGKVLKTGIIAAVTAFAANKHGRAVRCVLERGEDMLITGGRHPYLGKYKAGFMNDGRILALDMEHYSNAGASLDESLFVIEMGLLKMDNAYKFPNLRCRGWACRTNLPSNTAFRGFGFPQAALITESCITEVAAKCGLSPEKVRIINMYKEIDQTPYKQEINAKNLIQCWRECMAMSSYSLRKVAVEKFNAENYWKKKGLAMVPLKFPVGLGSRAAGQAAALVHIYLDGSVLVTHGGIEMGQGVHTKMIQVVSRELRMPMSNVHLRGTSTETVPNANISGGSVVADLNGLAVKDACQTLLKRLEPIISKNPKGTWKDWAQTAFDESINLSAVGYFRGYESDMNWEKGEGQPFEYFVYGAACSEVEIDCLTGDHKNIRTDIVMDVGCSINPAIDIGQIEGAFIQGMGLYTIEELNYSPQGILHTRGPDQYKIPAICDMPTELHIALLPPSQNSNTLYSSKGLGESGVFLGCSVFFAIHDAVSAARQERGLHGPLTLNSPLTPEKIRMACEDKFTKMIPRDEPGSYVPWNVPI

SMILES | IC50 (ATM protein) [nM] | P-glycoprotein efflux substrate (P-glycoprotein) | BCRP efflux substrate [1] | Aldehyde oxidase substrate [2]
CC(C)Oc1ccc(-c2ccc3ncc4c(c3c2)n([C@@H]2CCN(C)CC2(F)F)c(=O)n4C)cn1 [Compound 20, (R)-1-(3,3-difluoro-1-methylpiperidin-4-yl)-8-(6-isopropoxypyridin-3-yl)-3-methyl-1,3-dihydro-2H-imidazo[4,5-c]quinolin-2-one] | < 100 | No | No | No
CN1CC[C@H](n2c(=O)n(C)c3cnc4ccc(-c5ccc(N6C[C@@H]7[C@H]6CCN7C)nc5)cc4c32)C(F)(F)C1 [Compound 40] | < 100 | No | No | No
CN1CCC(n2c(=O)n(C)c3cnc4ccc(-c5ccc(N6CC7C6CCN7C)nc5)cc4c32)C(F)(F)C1 (racemic) [Compound 13, (R/S)-1-(3,3-difluoro-1-methylpiperidin-4-yl)-3-methyl-8-(6-((1R,5R/1S,5S)-(2-methyl-2,6-diazabicyclo[3.2.0]heptan-6-yl)pyridin-3-yl)-1,3-dihydro-2H-imidazo[4,5-c]quinolin-2-one] | < 100 | No | No | No
CCOc1ccc(-c2ccc3ncc4c(c3c2)n(C2CCN(C)CC2(F)F)c(=O)n4C)cn1 (racemic) [Compound 4, (R/S)-1-(3,3-difluoro-1-methylpiperidin-4-yl)-8-(6-ethoxypyridin-3-yl)-3-methyl-1,3-dihydro-2H-imidazo[4,5-c]quinolin-2-one] | < 100 | No | No | No
CCOc1ccc(-c2ccc3ncc4c(c3c2)n([C@@H]2CCN(C)CC2(F)F)c(=O)n4C)cn1 [Compound 17, (R)-1-(3,3-difluoro-1-methylpiperidin-4-yl)-8-(6-ethoxypyridin-3-yl)-3-methyl-1,3-dihydro-2H-imidazo[4,5-c]quinolin-2-one] | < 100 | No | No | No
COc1ccc(-c2ccc3ncc4c(c3c2)n(C2CCN(C(C)C)CC2(F)F)c(=O)n4C)cn1 (racemic) [Compound 3, (R/S)-1-(3,3-difluoro-1-isopropylpiperidin-4-yl)-8-(6-methoxypyridin-3-yl)-3-methyl-1,3-dihydro-2H-imidazo[4,5-c]quinolin-2-one] | < 100 | No | No | No
COc1ccc(-c2cc3c(cc2F)ncc2c3n([C@@H]3CCN(C)CC3(F)F)c(=O)n2C)cn1 [Compound 18, (R)-1-(3,3-difluoro-1-methylpiperidin-4-yl)-7-fluoro-8-(6-methoxypyridin-3-yl)-3-methyl-1,3-dihydro-2H-imidazo[4,5-c]quinolin-2-one] | < 100 | No | No | No
CCN1CC[C@@H](n2c(=O)n(C)c3cnc4ccc(-c5ccc(OC)nc5)cc4c32)C(F)(F)C1 [Compound 15, (R)-1-(1-ethyl-3,3-difluoropiperidin-4-yl)-8-(6-methoxypyridin-3-yl)-3-methyl-1,3-dihydro-2H-imidazo[4,5-c]quinolin-2-one] | < 100 | No | No | No

Further lines, results first:

IC50 (ATM protein) [nM] | P-glycoprotein efflux substrate (P-glycoprotein) | BCRP efflux substrate [1] | Aldehyde oxidase substrate [2] | SMILES
< 100 | No | No | No | CN1CC[C@H](n2c(=O)n(C)c3cnc4ccc(-c5ccc(N6CC(N(C)C)C6)nc5)cc4c32)C(F)(F)C1 [Compound 38, (S)-1-(3,3-difluoro-1-methylpiperidin-4-yl)-8-(6-(3-(dimethylamino)azetidin-1-yl)pyridin-3-yl)-3-methyl-1,3-dihydro-2H-imidazo[4,5-c]quinolin-2-one]
< 100 | No | No | No | CN1CC[C@@H](n2c(=O)n(C)c3cnc4ccc(-c5ccc(N6C[C@H]7[C@@H]6CCN7C)nc5)cc4c32)C(F)(F)C1 [Compound 27]
< 100 | No | No | No | CN1CC[C@@H](n2c(=O)n(C)c3cnc4ccc(-c5ccc(N(C)C)nc5)cc4c32)C(F)(F)C1 [Compound 21, (R)-1-(3,3-difluoro-1-methylpiperidin-4-yl)-8-(6-(dimethylamino)pyridin-3-yl)-3-methyl-1,3-dihydro-2H-imidazo[4,5-c]quinolin-2-one]
< 100 | No | No | No | CN1CC[C@H](n2c(=O)n(C)c3cnc4ccc(-c5ccc(N6C[C@H]7[C@@H]6CCN7C)nc5)cc4c32)C(F)(F)C1 [Compound 41]
< 100 | No | No | No | CN1CC[C@@H](n2c(=O)n(C)c3cnc4ccc(-c5ccc(N6CC(N(C)C)C6)nc5)cc4c32)C(F)(F)C1 [Compound 24, (R)-1-(3,3-difluoro-1-methylpiperidin-4-yl)-8-(6-(3-(dimethylamino)azetidin-1-yl)pyridin-3-yl)-3-methyl-1,3-dihydro-2H-imidazo[4,5-c]quinolin-2-one]
< 100 | No | No | No | CN1CCC(n2c(=O)n(C)c3cnc4ccc(-c5ccc(N(C)C)nc5)cc4c32)C(F)(F)C1 (racemic) [Compound 8, (R/S)-1-(3,3-difluoro-1-methylpiperidin-4-yl)-8-(6-(dimethylamino)pyridin-3-yl)-3-methyl-1,3-dihydro-2H-imidazo[4,5-c]quinolin-2-one]
